Patent US7732398B2, “Medicinal uses of mu-opioid receptor agonists” (Cornell Research Foundation, Inc., priority 2000, dated 2010)
Some results were stated once for a whole list of compounds, not compound by compound.

Tested on: Male Sprague-Dawley rats
Assay: Rat tail-flick test, antinociceptive effects after intrathecal administration
Type: in vivo
Conditions: 3 times ED50 intrathecal, at peak analgesia, saline 10 min prior to measurement, cut-off 7 s
Experimental: Male Sprague-Dawley rats (300-350 g) were used.
Under light halothane anesthesia a needle connected to a Hamilton syringe was inserted percutaneously between spinal processes of the third and fourth lumbar vertebrae into the intrathecal space. A quick flick of the tail was observed when the tip of the needle entered the intrathecal space and was used as an indicator of successful puncture (Mestre et al., 1994). Drugs were delivered in a volume of 5 μl.
Intrathecal catheterization was performed at least two days prior to the experiment as previously described (Shimoyama et al., 1996). Briefly, under halothane anesthesia, a PE-10 tube was inserted through a small hole made in the atlanto-occipital membrane and threaded 8.5 cm down the intrathecal space to the lumbosacral level of the spinal cord. Drugs were delivered via the catheter in a volume of 5 μl, followed by 10 μl saline to flush the catheter.
To assess the antinociceptive effects of the opioids, the tail-flick test was used. […] The time from the onset of the heat to the withdrawal of the tail (tail-flick latency) was measured. […] Subsequent response latencies were determined at designated time points. […]
Cumulative dose-response studies were performed for each drug using the tail-flick test (Shimoyama et al., 1996), (Shimoyama et al., 1997). […] The response latency after each dosing was determined at peak analgesia, which was 15, 30 and 45 min after the administration of the MOR, DALDA and [Dmt^1]DALDA, respectively (based on preliminary studies). […] The percentage of analgesic responders in the group of rats for each cumulative dose was calculated, and a cumulative dose-response curve was constructed. The dose-response data were analyzed by the BLISS-21 computer program. […]
The effect of naloxone on the antinociceptive effects of intrathecal MOR, DALDA and [Dmt^1]DALDA was examined. An equipotent dose (3 times the ED50 value determined in Study 1) of MOR, DALDA or [Dmt^1]DALDA was given via an intrathecal catheter. […] Data were analyzed using the paired t-test. […]

With `N=C(N)NCCC[C@@H](NC(=O)[C@@H](N)Cc1ccc(O)cc1)C(=O)N[C@@H](Cc1ccccc1)C(=O)N[C@@H](CCCCN)C(N)=O` [DALDA, H-Tyr-D-Arg-Phe-Lys-NH2] the “Response Latencies” value was ≥ 7 s.
With `CN1CC[C@]23c4c5ccc(O)c4O[C@H]2[C@@H](O)C=C[C@H]3[C@H]1C5` [Morphine, morphine, reference compound] the “Response Latencies” value (listed as MOR) was ≥ 7 s.
With `Cc1cc(O)cc(C)c1C[C@H](N)C(=O)N[C@H](CCCNC(=N)N)C(=O)N[C@@H](Cc1ccccc1)C(=O)N[C@@H](CCCCN)C(N)=O` [[Dmt^1]DALDA, 2′,6′-dimethyl-Tyr-D-Arg-Phe-Lys-NH2] the “Response Latencies” value was ≥ 7 s.
